Test results reported in US20120053112A1, “METHODS AND COMPOSITIONS RELATED TO THE REGULATION OF GOBLET CELL DIFFERENTIATION, MUCUS PRODUCTION AND MUCUS SECRETION” (CHILDREN'S HOSPITAL MEDICAL CENTER, priority 2009, published 2012).
At least one compound was matched to its structure with a doubt left.

System: MUC5AC mRNA in Flag-SPDEF-GFP HBEC cells
Test: Effect of inhibitors on MUC5AC expression in SPDEF-expressing HBEC cells on air-liquid interface (real-time PCR)
Type: cell-based, human
Conditions: HBEC in vitro, result in words
Description: Inhibitors were added to media upon induction of ALI and RNA was isolated after 48 hours. (A) p38 MAPK inhibitor (SB239063) dose curve: 0.5, 1, 2.5, 5*, 10* μM. (B) PI3K inhibitor (LY294002) dose curve: 0.5, 1, 2.5, 5*, 10*, 25* μM. (C) mTor inhibitor (Rapamycin) dose curve: 1, 5, 10, 25, 50*, 100* nM. *=No detection of MUC5AC mRNA at these concentrations as determined by TAQMAN® real-time PCR (Applied Biosystems, Foster City, Calif.).
Expression levels of MUC5AC were measured in SPDEF-expressing HBEC cells treated with the p38 MAPK inhibitor SB239063. MUC5AC mRNA was quantitated by QRT-PCR. MUC5AC mRNA was not detected at inhibitor concentrations ≧5 uM.
Expression levels of MUC5AC in SPDEF-expressing HBEC cells treated with rapamycin. MUC5AC mRNA was not detected at inhibitor concentrations ≧50 nM.
Expression levels of MUC5AC in SPDEF-expressing HBEC cells treated with the PI3K inhibitor LY294002. MUC5AC mRNA was not detected at inhibitor concentrations ≧[…].
Using Agr2 as a readout of SPDEF, the effects of p38 MAPK inhibitor SB239063, PI3K inhibitor LY294002, and mTor inhibitor rapamycin in human bronchiolar epithelial cells (HBEC) were investigated. […]
To test for small molecule inhibitors, HBEC cells expressing lentiviral SPDEF constructs were treated with the p38 MAP kinase inhibitor, SB239063. MUC5AC mRNA was quantitated by QRT-PCR. […]

| Compound | Effect on SPDEF-mediated MUC5AC (Muc5A/C) activation / mRNA |
| --- | --- |
| O=c1cc(N2CCOCC2)oc2c(-c3ccccc3)cccc12 [LY294002] | inhibited |
| CO[C@H]1C[C@@H]2CC[C@@H](C)[C@@](O)(O2)C(=O)C(=O)N2CCCC[C@H]2C(=O)O[C@H]([C@H](C)C[C@@H]2CC[C@@H](O)[C@H](OC)C2)CC(=O)[C@H](C)/C=C(\C)[C@@H](O)[C@@H](OC)C(=O)[C@H](C)C[C@H](C)/C=C/C=C/C=C/1C [Rapamycin] | highly active |
